The target of this assay is T1, Recombinant human GST-Syt1-C2AB domain (human, UniProt P21579 81-422).
T1 construct: human synaptotagmin 1, cytoplasmic C2AB domains (C2A and C2B); Construct was a gift (Dr. Namgi Lee); also called C2AB fusion protein; GST-fused cytoplasmic (C2AB) domains of Syt1; not shown: GST, N-terminal, kept
As to the kind of experiment: pull-down; GST fusion protein on beads incubated with cleared extracts of transfected HEK293T cells (1 mg at 1 mg/ml) for 4 h at 4 °C; lysis buffer 20 mM Tris-HCl pH 8.0, 137 mM NaCl, 2 mM EDTA, 1% Triton X-100; bound proteins detected by immunoblot for HA; only the target purified.

Amino acid sequences for entries named in this document (tags omitted). A change or cut given only in a name is not applied to a line headed by its entry.
UniProt P21579: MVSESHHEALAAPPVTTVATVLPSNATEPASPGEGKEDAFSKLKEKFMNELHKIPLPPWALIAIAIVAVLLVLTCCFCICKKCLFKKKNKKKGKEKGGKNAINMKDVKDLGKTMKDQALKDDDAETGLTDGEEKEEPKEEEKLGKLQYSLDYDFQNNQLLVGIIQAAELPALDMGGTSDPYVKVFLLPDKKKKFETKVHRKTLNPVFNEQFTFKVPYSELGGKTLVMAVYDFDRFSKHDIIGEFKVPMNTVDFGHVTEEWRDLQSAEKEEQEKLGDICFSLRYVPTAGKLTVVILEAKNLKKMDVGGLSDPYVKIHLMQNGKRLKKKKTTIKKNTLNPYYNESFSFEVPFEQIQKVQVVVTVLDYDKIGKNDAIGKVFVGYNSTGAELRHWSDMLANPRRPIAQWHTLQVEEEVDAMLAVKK

Drawing on PMC6499997, “SGIP1α functions as a selective endocytic adaptor for the internalization of synaptotagmin 1 at synapses” (Molecular Brain, 2019), this text covers binding for three molecules.

These are yes or no findings as the source states them, for the method shown. In cells and extracts the contact can be indirect. Binding can be weak; no strength is given. Where a sequence is shown, tags or fusion partners need not be part of it.

B1: HA-SGIP1α-μHD (aa 550–854) (domain or fragment, UniProt Q8VD37-6 550-854)
chain: ENEQPSLVWFDRGKFYLTFEGSSRGPSPLTMGAQDTLPVAAAFTETVNAYFKGADPSKCIVKITGEMVLSFPAGITRHFANNPSPAALTFRVVNSSRLEHVLPNPQLLCCDNTQNDANTKEFWVNMPNLMTHLKKVSEQKPQATYYNVDMLKYQVSAQGIQSTPLNLAVNWRCEPASTDLRIDYKYNTDAMSTAVALNNVQFLVPIDGGVTKLQAVLPPAVWNAEQQRILWKIPDISQKSENGGVGSLLARFQLSEGPSKPSPLVVQFTSEGSTLSGCDIELVGAGYRFSLIKKRFAAGKYLADN
As to B1, the binding result is reported as “binds”.

B2: HA-tagged SGIP1α (protein, UniProt Q8VD37-6 1-854)
chain: MMEGLKKRTRKAFGIRKKEKDTDSTGSPDRDGMQGKKKAQKTQLLLTSCFWLRALSLTLSQQPSPHEPPYHSKAECAREGGKKASKKSNGAPNGFYAEIDWERYNSPELDEEGYSIRPEEPGSTKGKHFYSSSESEEEEESHKKFNIKIKPLQSKDVLKNAATVDELKASIGNIALSPSPVRKSPRRSPGAIKRNLSSEEVARPRRSTPTPELTSKKPLDDTLALAPLFGPPLESAFDEQKTEVLLDQPEIWGSGQPMNPSTESPELARPFPTGTPPPLPPKTVPATPPRTGSPLTVATGNDQAATEAKIEKLPSISDLDSIFGPVLSPKSVAVNTEEKWVHFSDASPEHVTPELTPREQVVTPPAASDIPADSPAPAPPGPTGSAGPPGPPGPRHVPSPLNLEEVQKKVAEQTFIKDDYLETLSSPKECGLGQRATPPPPPPPTYRTVVSSPGPGSGSGTGTTSGASSPARPATPLVPCSTTPPPPPPRPPSRPKLPPGKPGVGDVSRPFSPPIHSSSPPPIAPLARAESTSSISSTNSLSAATTPTVENEQPSLVWFDRGKFYLTFEGSSRGPSPLTMGAQDTLPVAAAFTETVNAYFKGADPSKCIVKITGEMVLSFPAGITRHFANNPSPAALTFRVVNSSRLEHVLPNPQLLCCDNTQNDANTKEFWVNMPNLMTHLKKVSEQKPQATYYNVDMLKYQVSAQGIQSTPLNLAVNWRCEPASTDLRIDYKYNTDAMSTAVALNNVQFLVPIDGGVTKLQAVLPPAVWNAEQQRILWKIPDISQKSENGGVGSLLARFQLSEGPSKPSPLVVQFTSEGSTLSGCDIELVGAGYRFSLIKKRFAAGKYLADN
With B2, the binding result is “binds”.

B3: HA-SGIP1α-ΔμHD (aa 1–549) (domain or fragment, UniProt Q8VD37-6 1-549)
chain: MMEGLKKRTRKAFGIRKKEKDTDSTGSPDRDGMQGKKKAQKTQLLLTSCFWLRALSLTLSQQPSPHEPPYHSKAECAREGGKKASKKSNGAPNGFYAEIDWERYNSPELDEEGYSIRPEEPGSTKGKHFYSSSESEEEEESHKKFNIKIKPLQSKDVLKNAATVDELKASIGNIALSPSPVRKSPRRSPGAIKRNLSSEEVARPRRSTPTPELTSKKPLDDTLALAPLFGPPLESAFDEQKTEVLLDQPEIWGSGQPMNPSTESPELARPFPTGTPPPLPPKTVPATPPRTGSPLTVATGNDQAATEAKIEKLPSISDLDSIFGPVLSPKSVAVNTEEKWVHFSDASPEHVTPELTPREQVVTPPAASDIPADSPAPAPPGPTGSAGPPGPPGPRHVPSPLNLEEVQKKVAEQTFIKDDYLETLSSPKECGLGQRATPPPPPPPTYRTVVSSPGPGSGSGTGTTSGASSPARPATPLVPCSTTPPPPPPRPPSRPKLPPGKPGVGDVSRPFSPPIHSSSPPPIAPLARAESTSSISSTNSLSAATTPTV
As for B3, the binding result was “no binding”.
